Reference: patent publication US20240343747A1, “Heteroaryl compounds as inhibitors of TYK2, composition and application thereof” (Accro Bioscience (HK) Limited, priority 2021, published 2024)
At least one structure is not confirmed: it was looked up by name or label, or the drawing left a doubt.

Key:
JAK1/JAK2 pathway = assay: Selectivity: JAK1/JAK2 pathway, IFN-γ-induced p-STAT1 in HT-29 cells, western blot; format: cell-based; details: IFN-γ 100 ng/mL
Description: HT-29 cells were digested by trypsin and suspended in DMEM medium and counted. The tested compounds were added into 6 well plates (400 000/per well) for 2 hours, then IFN-γ (100 ng/mL) was added to stimulate cells for 30 minutes. The cells were collected and lysed with protein lysate. The protein was quantitatively tested by BCA kit. Finally, p-STAT1/STAT1 and internal reference protein β-actin were detected by western blot.

IL-23 induced psoriasis = IL-23 induced psoriasis in mice (ear thickness); format: in vivo; details: oral gavage twice a day, 14 days, B41 10 and 30 mg/kg, BMS986165 10 mg/kg
Description: Recombinant human IL-23 (100 ng/time/mouse) was injected into the right ear of mice every two days starting from day 1 of the study. The administration group included 7 mice, with EtOH:TPGS:PEG300=[…] as vehicle, compound B41 (10 mg/kg, 30 mg/kg) or BMS986165 (10 mg/kg) orally gavage twice a day the night before the first injection of IL-23. The control group was injected with vehicle alone. The experiment lasted for 14 days. The thickness of the ear was measured with a micrometer every two days.

## [2H]C([2H])([2H])NC(=O)c1nnc(NC(=O)C2CC2)cc1Nc1cccc(-c2cc(P(=O)(C3CC3)C3CC3)n(C)n2)c1OC [Compound B41, 6-(cyclopropanecarboxamido)-4-((3-(5-(dicyclopropylphosphoryl)-1-methyl-1H-pyrazol-3-yl)-2-methoxyphenyl)amino)-N-(methyl-d3)pyridazine-3-carboxamide]
JAK1/JAK2 pathway
  effect on downstream STAT1 phosphorylation induced by IFN-γ: inhibited JAK1/JAK2 pathway in a concentration-dependent manner
IL-23 induced psoriasis
  efficacy in IL-23 induced psoriasis (ear thickness): effectively inhibit and treat
